Reference: the supplement of paper PMC12823440, “Inhibitors supercharge kinase turnover through native proteolytic circuits” (Nature, 2025)
Where a name gives a salt, the structure may show the parent alone. Some of the results follow. Hit calls seldom repeat between salt and free forms of one compound.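 Kinases, fused to nanoluciferase, were expressed in K562 cells; luminescence was measured every 4 h from 2 to 18 h as percent of control (DMSO = 100%, positive control = 0%). A time point is decreased if signal falls significantly (2 sigma). Hits were called by the authors by a rule that is not shown; the count of time points alone does not decide it.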

Chains of the proteins cited; added tags and fusions are not shown. Lines headed by an entry give the natural chain unless they say otherwise; changes in a name come on top.
UniProt Q8IWU2: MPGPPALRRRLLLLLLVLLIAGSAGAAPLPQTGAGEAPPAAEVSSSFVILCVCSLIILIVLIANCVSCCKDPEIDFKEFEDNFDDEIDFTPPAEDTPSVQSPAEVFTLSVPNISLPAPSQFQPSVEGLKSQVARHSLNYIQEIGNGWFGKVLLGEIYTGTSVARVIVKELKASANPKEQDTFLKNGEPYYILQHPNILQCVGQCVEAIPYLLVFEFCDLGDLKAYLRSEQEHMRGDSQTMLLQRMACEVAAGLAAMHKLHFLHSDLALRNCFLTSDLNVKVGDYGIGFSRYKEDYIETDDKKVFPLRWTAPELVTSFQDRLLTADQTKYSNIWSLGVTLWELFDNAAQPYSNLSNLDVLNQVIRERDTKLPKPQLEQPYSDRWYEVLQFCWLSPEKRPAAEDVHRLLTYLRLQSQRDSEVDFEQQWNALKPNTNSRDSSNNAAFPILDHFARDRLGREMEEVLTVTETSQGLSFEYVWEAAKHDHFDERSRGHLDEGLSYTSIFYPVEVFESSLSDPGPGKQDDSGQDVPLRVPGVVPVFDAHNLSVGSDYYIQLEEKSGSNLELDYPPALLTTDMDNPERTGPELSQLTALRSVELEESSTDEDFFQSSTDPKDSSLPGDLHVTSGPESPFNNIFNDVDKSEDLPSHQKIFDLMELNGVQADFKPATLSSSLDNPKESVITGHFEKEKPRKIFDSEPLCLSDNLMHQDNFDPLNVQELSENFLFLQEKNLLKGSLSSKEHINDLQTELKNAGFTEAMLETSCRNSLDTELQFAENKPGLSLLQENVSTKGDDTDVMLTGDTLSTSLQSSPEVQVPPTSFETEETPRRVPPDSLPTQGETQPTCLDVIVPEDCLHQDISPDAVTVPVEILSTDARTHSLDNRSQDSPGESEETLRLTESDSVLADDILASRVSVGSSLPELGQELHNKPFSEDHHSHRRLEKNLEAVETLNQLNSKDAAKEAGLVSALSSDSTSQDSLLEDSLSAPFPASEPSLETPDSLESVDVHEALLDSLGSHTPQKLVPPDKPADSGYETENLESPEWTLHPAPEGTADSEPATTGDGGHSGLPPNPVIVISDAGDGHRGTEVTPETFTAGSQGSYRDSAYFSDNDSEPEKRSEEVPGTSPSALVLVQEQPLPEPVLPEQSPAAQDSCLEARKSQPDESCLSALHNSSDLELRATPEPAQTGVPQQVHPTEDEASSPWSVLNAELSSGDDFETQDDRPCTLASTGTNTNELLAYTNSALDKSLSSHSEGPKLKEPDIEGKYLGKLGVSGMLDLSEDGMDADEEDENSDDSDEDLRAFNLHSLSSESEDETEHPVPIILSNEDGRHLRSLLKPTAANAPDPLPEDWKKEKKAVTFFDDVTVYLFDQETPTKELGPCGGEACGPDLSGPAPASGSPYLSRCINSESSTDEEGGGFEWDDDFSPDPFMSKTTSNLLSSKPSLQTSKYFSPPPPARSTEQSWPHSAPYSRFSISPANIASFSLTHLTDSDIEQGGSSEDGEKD
UniProt P07948: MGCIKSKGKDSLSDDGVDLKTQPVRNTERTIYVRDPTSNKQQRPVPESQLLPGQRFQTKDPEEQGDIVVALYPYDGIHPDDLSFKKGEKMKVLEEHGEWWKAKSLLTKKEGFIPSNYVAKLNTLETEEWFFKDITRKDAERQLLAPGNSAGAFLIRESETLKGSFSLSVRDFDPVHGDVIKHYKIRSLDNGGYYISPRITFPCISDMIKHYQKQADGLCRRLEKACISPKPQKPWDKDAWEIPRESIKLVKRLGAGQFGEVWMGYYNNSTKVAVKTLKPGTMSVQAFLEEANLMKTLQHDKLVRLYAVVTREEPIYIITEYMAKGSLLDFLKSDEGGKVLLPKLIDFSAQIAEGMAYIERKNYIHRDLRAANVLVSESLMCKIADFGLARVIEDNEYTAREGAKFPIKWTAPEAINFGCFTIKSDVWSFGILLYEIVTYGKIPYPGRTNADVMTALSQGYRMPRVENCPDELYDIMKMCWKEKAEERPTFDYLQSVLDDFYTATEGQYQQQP

biological target: LMTK2 (UniProt Q8IWU2); assay: number of time points (of 5) at which kinase-Nluc abundance scored as decreased, DMSO-normalised (count); higher = more persistent destabilization; conditions: K562; 2-18 h

SMILES | number of time points
CC[C@@](C)(Nc1ccnc(-c2c[nH]c3ncccc23)n1)C(=O)NCC(F)(F)F [Decernotinib] (10 µM) | 0
COc1cc2ncnc(-n3nc(-c4ccccn4)nc3N)c2cc1OC (10 µM) | 0
O=C1/C(=C\c2ccc(Cl)cc2)C=C(c2ccccc2)N1c1ccc(O)cc1 (2.5 µM) | 0
Oc1ccc(/C=C/c2cc(O)cc(O)c2)cc1 [Resveratrol] (10 µM) | 0

biological target: LYN (UniProt P07948); assay: as above; conditions: K562; 2-18 h

SMILES | number of time points
CN1C(=O)[C@@H](NC(=O)c2n[nH]c(Cc3ccccc3)n2)COc2ccccc21 (10 µM) | 0
O=C1NC(=Nc2c(Cl)cccc2Cl)S/C1=C\c1ccc2nccnc2c1 (2.5 µM) | 2
Cc1cccc(-c2[nH]c(C(C)(C)C)nc2-c2ccc3nccnc3c2)n1 (10 µM) | 0
O=C(Nc1cccc(C(F)(F)F)c1)c1cccc2cc(Oc3cc(CO)ncn3)ccc12 (10 µM) | 0
CNc1cc(Nc2cccn(-c3ccccn3)c2=O)nn2c(C(=O)N[C@@H]3C[C@@H]3F)cnc12 (2.5 µM) | 0
Cc1ccn2c(C(=O)C(=O)c3ccccc3)c(-c3ccccc3)nc2c1 (10 µM) | 0
COc1cc(N2CCOCC2)ccc1Nc1ncc(Cl)c(Nc2ccccc2NS(C)(=O)=O)n1 (2.5 µM) | 0
O=C(NC1CCOCC1)c1ccc(-c2cc(-c3c[nH]nc3-c3ccccn3)ccn2)cc1 (10 µM) | 0
O=C1NC(=O)/C(=C/c2ccc3nccc(-c4ccncc4)c3c2)S1 (10 µM) | 0
Cc1ncc(NC(=O)NC2c3ccccc3-c3ccccc32)c(-c2ccccc2)n1 (10 µM) | 0
CC(C)C[C@@H](C(=O)Nc1ccn(C[C@@H](O)CO)n1)N1CC(Oc2ccccc2Cl)=CC1=O [Dorzagliatin] (10 µM) | 0
O=C1O[C@H]([C@@H](O)CO)C(O)=C1OP(=O)(O)O [2-Phospho-L-ascorbic acid (trisodium)] (10 µM) | 0
C[C@@H]1CC(=O)c2c(ccc3c2C(=O)c2cccc(O)c2C3=O)C1 [Ochromycinone] (10 µM) | 0
Cc1c(-c2ccc(C(N)=O)c3[nH]c4cc(C(C)(C)O)ccc4c23)cccc1-n1cnc2ccccc2c1=O (2.5 µM) | 0
CC(C)(C)n1nc(Cc2ccccc2O)c2c(N)ncnc21 (10 µM) | 0
C=CC(=O)N1C(=O)CC(c2ccc(F)cc2)Sc2ccccc21 (stereo not drawn) [GSK-3β inhibitor 3] (10 µM) | 0
CCc1ccc(OCC(=O)Nc2ccc(F)c([N+](=O)[O-])c2)cc1 (10 µM) | 0
CN(C)c1nc2c(Br)c(Br)c(Br)c(Br)c2[nH]1 (10 µM) | 0
Nc1ncnc2c1c(-c1ccc(Oc3ccccc3)cc1)nn2C1CCN(CCOCCOCCOc2ccc3c(c2)CN(C2CCC(=O)NC2=O)C3=O)CC1 (stereo not drawn) (2.5 µM) | 0
Cc1cnc(NC2CCOCC2)nc1-n1cnc(C(=O)N[C@H](CN)c2cc(F)cc(Cl)c2)c1 (10 µM) | 0

SMILES | number of time points
FC(F)(F)c1ccc(/C=C/c2nc(COc3ccc(CCCCn4ccnn4)cc3)co2)cc1 [Mubritinib] (10 µM) | 0
Cc1cc2sc(NC(=O)Cc3ccccc3)nc2cc1Cl (10 µM) | 0
O=C(CNc1cccc(Cl)c1)NC1CCCN(c2ncnc3[nH]ccc23)C1 (stereo not drawn) (10 µM) | 0
Oc1ccc(/C=C/c2cc(O)cc(F)c2)cc1 [Resveratrol analog 1] (10 µM) | 0
CC/C(=N\NC(=O)c1ccnc(NCCCN2CCOCC2)c1)c1ccc(Cl)cc1O (2.5 µM) | 0
O[C@@H]1CO[C@H]2[C@@H]1OC[C@H]2Oc1nc2nc(-c3ccc(-c4ccccc4)cc3)c(Cl)cc2[nH]1 (10 µM) | 0
Nc1c(C(=O)NCc2ccc(C(=O)NCCCC3CCCCC3)cc2)cnn1-c1ccccc1 (2.5 µM) | 0
Cc1ccc(C(=O)Nc2sc(Nc3ccccc3)nc2C(N)=O)cc1 (10 µM) | 0
COc1cc(N(C)CCN(C)C)c(N)cc1Nc1nccc(-c2cn(C)c3ccccc23)n1 [Mutated EGFR-IN-1] (10 µM) | 0
CCN(CC)c1cc2oc(=O)c(-c3nc4ccccc4o3)cc2cc1C (2.5 µM) | 0
Cn1cc(-c2cnc3cnn(S(=O)(=O)c4cnc5ccc(-c6cnn(C)c6)cn45)c3c2)cn1 [Glumetinib] (10 µM) | 0
Cc1ccc(NC(=O)c2ccnc(C(F)(F)F)c2)cc1-c1cc(OCCO)nc(N2CCOCC2)c1 (10 µM) | 0
C=CC(=O)Nc1cccc(-c2cccc3cnc(Nc4ccc(N5CCN(CCO)CC5)c(F)c4F)nc23)c1 [Olafertinib] (2.5 µM) | 0
CC(C)(C[C@H](N)C(=O)O)C(F)F [NV-5138 (hydrochloride)] (10 µM) | 0
Cc1cc(C)nc(NS(=O)(=O)c2ccc(NC(=S)NC(=O)COc3ccc(Br)cc3Cl)cc2)n1 (2.5 µM) | 0
CC[C@@](C)(Nc1ccnc(-c2c[nH]c3ncccc23)n1)C(=O)NCC(F)(F)F [Decernotinib] (10 µM) | 0
COc1cc2ncnc(-n3nc(-c4ccccn4)nc3N)c2cc1OC (10 µM) | 0
O=C1/C(=C\c2ccc(Cl)cc2)C=C(c2ccccc2)N1c1ccc(O)cc1 (2.5 µM) | 0
Oc1ccc(/C=C/c2cc(O)cc(O)c2)cc1 [Resveratrol] (10 µM) | 0
